Measurements reported in PubChem BioAssay AID602196 (INSERM, 2012)

Screen: 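Genes whose knock-down alters cisplatin killing of lung cancer cells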
Cell system: human A549 lung cancer cells
Reagents: siRNA pair against human genes
Timing: 48 h transfection before cisplatin; time from cisplatin to read-out not stated
Treatment: cisplatin at a dose killing half of control-siRNA cells; exact dose and duration not given
Detection: 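Cisplatin cell death as a shift from the 50% death seen with control siRNA; siRNAs toxic or growth-blocking alone scored 0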
Scale: two-siRNA summed score (-2 to +2): higher = both siRNAs protect from cisplatin killing; -2 means both sensitise
Rule for the call: 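Each siRNA scores 0 if harmful alone by LDH or WST-1, otherwise +1 if it reduces and -1 if it increases cisplatin killing; a gene is active when both siRNAs agree (sum +2 or -2)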
Calls: active = both siRNAs shift cisplatin killing the same way; inactive = no consistent shift, or siRNA harmful alone
This is an unselected part of about 23,000 reagents. 455 of all reagents (2%) were called active. 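Active includes both protection and sensitisation; some change values fall well beyond the stated -50 to +50 range.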 Not all columns of the deposit are shown. Not given: the amount of reagent.

The opening 2 entries, ahead of the listing:
Target gene | two-siRNA summed score (-2 to +2) | Call
CFAP99 | 1 | inactive
ARHGEF37 | 0 | inactive

Results, repeating the preview:
Target gene | two-siRNA summed score (-2 to +2) | Call
CFAP99 | 1 | inactive
ARHGEF37 | 0 | inactive
SLC5A4 | 2 | active
LOC387887 | 0 | inactive
LAPTM4A | 0 | inactive
MAP3K7 | 1 | inactive
GOLGA2P11 | 0 | inactive
MYNN | 0 | inactive
ZNF496 | 0 | inactive
ZNF585B | 1 | inactive
LOC389276 | 0 | inactive
LOC441832 | 0 | inactive
ENTREP1 | 0 | inactive
LRRFIP1 | 0 | inactive
CDH12 | 0 | inactive
TRMT10A | 0 | inactive
LOC400307 | 0 | inactive
CBFA2T2 | 0 | inactive
IQCE | 0 | inactive
CYP27C1 | -1 | inactive
LOC401115 | 0 | inactive
UBE2D4 | 0 | inactive
ADAM11 | -1 | inactive
PIH1D1 | 0 | inactive
PYGO2 | 0 | inactive
MGLL | 0 | inactive
LOC389085 | -1 | inactive
CCN5 | 0 | inactive
LOC340089 | 0 | inactive
DNAJC14 | 0 | inactive
LINC01101 | -1 | inactive
LINC00951 | 0 | inactive
DYRK1A | -1 | inactive
ZMYND10 | 0 | inactive
MLST8 | 0 | inactive
CTDSPL | 0 | inactive
SCFD2 | 0 | inactive
RABGGTA | 0 | inactive
SCP2D1 | 1 | inactive
MIRLET7BHG | 0 | inactive
LOC401268 | 0 | inactive
LINC00305 | 0 | inactive
LOC388690 | 0 | inactive
MRPL33 | 0 | inactive
SLC30A8 | 0 | inactive
KNDC1 | 0 | inactive
KCNN4 | 0 | inactive
HGH1 | 0 | inactive
SETD7 | 1 | inactive
LOC285694 | 0 | inactive
SAFB | 0 | inactive
METTL18 | 0 | inactive
C1GALT1 | 1 | inactive
LMNTD2 | -1 | inactive
CD164L2 | -1 | inactive
LIMS2 | 0 | inactive
KIAA0930 | 0 | inactive
